Experimental data published in doi:10.1101/336578.
These are yes or no findings as the source states them, for the method shown. A result given as binding can be weak or reduced; the word gives no strength.

The chains behind the UniProt entries cited, without tags or fusion partners. Where a name states a change or a piece, a line headed by the entry shows the natural chain unless it says otherwise.
UniProt P07149: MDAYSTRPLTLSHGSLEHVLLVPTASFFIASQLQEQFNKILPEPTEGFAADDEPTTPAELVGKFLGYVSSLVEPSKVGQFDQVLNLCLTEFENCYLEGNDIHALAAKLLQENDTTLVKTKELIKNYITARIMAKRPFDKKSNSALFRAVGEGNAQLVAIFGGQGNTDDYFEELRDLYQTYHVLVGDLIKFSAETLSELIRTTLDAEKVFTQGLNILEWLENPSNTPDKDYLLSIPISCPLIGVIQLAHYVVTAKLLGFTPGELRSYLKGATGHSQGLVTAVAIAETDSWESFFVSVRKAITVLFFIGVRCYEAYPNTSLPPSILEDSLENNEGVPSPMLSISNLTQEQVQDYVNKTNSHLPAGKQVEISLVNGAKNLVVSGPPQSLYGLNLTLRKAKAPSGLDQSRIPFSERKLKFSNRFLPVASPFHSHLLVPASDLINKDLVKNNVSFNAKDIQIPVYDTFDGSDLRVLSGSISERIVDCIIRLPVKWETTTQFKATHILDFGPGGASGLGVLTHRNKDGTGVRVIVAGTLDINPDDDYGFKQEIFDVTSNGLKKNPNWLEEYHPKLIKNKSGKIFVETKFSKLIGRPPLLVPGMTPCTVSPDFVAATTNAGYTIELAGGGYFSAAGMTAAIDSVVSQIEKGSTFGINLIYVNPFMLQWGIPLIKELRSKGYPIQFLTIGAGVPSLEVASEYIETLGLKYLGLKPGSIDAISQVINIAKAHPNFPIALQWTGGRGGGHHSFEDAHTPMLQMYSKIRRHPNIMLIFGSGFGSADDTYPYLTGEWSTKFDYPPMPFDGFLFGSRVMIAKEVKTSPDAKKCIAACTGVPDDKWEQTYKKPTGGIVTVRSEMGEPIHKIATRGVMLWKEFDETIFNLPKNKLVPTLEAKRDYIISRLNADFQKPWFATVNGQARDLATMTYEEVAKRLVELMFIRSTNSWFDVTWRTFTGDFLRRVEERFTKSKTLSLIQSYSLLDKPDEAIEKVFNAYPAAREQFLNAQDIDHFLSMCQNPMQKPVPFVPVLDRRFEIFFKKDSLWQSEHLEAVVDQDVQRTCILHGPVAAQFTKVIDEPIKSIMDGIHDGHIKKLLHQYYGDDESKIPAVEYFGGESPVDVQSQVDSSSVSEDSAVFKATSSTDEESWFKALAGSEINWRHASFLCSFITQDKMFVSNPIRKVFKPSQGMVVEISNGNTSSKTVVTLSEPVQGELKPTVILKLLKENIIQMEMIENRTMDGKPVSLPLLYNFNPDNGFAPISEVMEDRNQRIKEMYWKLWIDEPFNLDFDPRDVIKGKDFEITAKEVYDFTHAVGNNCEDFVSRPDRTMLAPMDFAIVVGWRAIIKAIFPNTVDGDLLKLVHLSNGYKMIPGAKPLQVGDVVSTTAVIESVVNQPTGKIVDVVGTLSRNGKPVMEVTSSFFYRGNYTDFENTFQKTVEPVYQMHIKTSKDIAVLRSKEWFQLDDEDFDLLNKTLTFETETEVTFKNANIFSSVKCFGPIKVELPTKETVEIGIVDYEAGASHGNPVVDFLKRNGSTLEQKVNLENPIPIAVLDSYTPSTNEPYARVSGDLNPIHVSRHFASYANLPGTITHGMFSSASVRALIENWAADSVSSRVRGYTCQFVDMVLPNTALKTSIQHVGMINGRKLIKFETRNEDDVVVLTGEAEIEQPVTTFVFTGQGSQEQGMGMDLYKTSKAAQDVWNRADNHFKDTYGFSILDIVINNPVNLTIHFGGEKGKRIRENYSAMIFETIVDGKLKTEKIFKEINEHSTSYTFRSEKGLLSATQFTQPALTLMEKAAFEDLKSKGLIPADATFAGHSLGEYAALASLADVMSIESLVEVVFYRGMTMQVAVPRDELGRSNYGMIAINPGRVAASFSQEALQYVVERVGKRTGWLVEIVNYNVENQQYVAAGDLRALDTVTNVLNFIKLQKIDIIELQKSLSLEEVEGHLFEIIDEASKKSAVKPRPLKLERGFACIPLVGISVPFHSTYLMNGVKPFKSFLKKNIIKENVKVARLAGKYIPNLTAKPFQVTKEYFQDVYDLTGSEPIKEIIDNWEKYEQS
UniProt P19097: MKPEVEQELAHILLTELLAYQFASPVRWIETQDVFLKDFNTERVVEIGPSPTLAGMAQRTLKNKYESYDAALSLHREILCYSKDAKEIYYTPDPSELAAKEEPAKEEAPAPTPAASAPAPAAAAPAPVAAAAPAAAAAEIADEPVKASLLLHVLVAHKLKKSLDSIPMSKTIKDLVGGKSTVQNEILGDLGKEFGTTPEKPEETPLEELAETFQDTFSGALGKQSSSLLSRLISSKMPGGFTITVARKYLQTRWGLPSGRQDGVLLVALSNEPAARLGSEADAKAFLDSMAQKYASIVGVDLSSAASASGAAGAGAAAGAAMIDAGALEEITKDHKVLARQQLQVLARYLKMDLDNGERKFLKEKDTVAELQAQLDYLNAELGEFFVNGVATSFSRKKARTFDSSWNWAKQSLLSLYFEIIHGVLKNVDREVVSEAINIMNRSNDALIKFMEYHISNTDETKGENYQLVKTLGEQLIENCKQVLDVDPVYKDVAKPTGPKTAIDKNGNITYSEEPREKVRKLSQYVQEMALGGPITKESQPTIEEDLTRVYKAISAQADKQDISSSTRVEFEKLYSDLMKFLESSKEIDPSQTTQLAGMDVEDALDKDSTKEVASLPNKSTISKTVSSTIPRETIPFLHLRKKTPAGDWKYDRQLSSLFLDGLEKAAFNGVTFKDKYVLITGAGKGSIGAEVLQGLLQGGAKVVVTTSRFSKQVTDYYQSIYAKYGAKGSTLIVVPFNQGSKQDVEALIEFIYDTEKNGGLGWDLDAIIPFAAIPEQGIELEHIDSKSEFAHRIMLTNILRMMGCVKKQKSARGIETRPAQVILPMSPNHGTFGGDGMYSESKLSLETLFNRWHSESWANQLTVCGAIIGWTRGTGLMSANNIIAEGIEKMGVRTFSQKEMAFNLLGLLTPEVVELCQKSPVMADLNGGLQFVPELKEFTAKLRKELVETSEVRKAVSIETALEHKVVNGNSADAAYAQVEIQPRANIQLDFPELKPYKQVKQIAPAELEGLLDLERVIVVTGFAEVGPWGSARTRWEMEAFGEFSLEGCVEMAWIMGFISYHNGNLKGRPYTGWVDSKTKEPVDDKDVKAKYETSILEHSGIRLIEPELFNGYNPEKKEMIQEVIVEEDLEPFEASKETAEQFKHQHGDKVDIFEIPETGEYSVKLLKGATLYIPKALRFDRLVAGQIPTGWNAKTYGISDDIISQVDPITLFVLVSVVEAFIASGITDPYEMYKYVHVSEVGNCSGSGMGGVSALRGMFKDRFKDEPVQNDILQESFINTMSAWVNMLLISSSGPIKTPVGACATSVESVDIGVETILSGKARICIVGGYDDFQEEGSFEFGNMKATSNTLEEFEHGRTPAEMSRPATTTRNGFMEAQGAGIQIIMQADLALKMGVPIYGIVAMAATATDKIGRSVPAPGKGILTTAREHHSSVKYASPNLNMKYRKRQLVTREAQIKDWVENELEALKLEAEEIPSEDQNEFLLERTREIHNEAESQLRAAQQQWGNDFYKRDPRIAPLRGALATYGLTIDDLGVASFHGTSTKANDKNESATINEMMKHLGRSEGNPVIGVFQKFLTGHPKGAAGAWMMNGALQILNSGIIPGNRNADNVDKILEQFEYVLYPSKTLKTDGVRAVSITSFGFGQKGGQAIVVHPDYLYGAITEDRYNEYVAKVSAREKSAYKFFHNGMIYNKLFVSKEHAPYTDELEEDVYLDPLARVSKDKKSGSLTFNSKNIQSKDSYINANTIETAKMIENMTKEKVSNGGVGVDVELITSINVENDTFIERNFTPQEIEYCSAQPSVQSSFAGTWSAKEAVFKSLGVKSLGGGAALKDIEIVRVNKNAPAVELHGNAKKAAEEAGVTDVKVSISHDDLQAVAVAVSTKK

Experiments:
[1] = target: S. cerevisiae FAS β-chain with the N-terminal trimerization module TM deleted (S. cerevisiae) (UniProt P07149); test: native gel or EMSA
[2] = target: S. cerevisiae FAS β-chain, wildtype (FAS1-encoded polypeptide) (S. cerevisiae) (UniProt P07149); test: native gel or EMSA

Substance	binding [1]	binding [2]
S. cerevisiae FAS α-chain with the embedded dimerization module DM2 deleted (from UniProt P19097)	binds	binds
S. cerevisiae FAS α-chain, wildtype (FAS2-encoded polypeptide) (from UniProt P19097 1-1887)	binds	–
